Experimental data as given in article PMC2777868.
Results are given in words; binding and its absence hold for the method and conditions named. In cells and extracts the contact can be indirect. Some entries that bind do so weakly or less than the wild type. Where a sequence is shown, tags or fusion partners need not be part of it.

Sequences of proteins named here, by UniProt entry; tags and fusion partners are left off.
UniProt P48510: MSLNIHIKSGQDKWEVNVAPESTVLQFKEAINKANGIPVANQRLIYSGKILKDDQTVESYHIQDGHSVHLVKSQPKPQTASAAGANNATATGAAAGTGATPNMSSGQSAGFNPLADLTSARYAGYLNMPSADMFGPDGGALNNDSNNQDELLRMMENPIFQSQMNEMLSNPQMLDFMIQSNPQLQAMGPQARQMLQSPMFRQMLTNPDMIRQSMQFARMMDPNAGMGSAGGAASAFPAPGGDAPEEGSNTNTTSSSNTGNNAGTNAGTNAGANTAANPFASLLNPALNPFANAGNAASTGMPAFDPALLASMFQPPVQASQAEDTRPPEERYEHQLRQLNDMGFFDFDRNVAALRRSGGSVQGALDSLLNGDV

Target: Dsk2-TAP (S. cerevisiae) (UniProt P48510)
Assay: co-IP; extracts of yeast cells expressing endogenous Dsk2-TAP and galactose-inducible GST-His6-Kre22; immunoprecipitated with either IgG or GST beads, SDS-PAGE, immunoblot; done as in ref. 20

B1: GST-His6-tagged Kre22 (protein, UniProt P87269 1-146)
chain: MTILHQSEDQIEVASEVAAASEAASEVASEAVSPEAASVAPEVDLVVQEVVTVAIPEVATVATPEADMVAPEVVTIVLEVVTIVQEVVIPEVAMVVQEMITVLQEVATVVQEVVMMVQEAIMVLQEMHTEPEMLHVKDHQPGKPFI
Question: How did the binding turn out when B1 was run?
Answer: binds
